Results deposited as PubChem BioAssay AID504804 (Drosophila RNAi Screening Center, 2011)

Test: 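dsRNAs that improve Kc cell survival under doxorubicin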 (primary screen)
System: Drosophila Kc cells
Knock-down reagent: long dsRNA against Drosophila genes, 0.5 µg dsRNA per well
Time to read-out: 96 h (48 h knock-down, then 48 h drug)
Conditions: doxorubicin 5 µg/ml for 48 h, added 48 h after dsRNA
Measured: 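Viability measured as cellular ATP by luminescence after 48 h knock-down then 48 h doxorubicin at 5 µg/ml; unnormalised plate counts for each replicate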
Scale: raw ATP luminescence: higher = more viable cells, protection from doxorubicin
Call rule: 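Active when both duplicate wells lie at least 2 SD above the plate mean and protection is confirmed by rescreening and independent dsRNAs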
In all, the deposit lists about 19,000 reagents; below is a random part of those that have a named target and a result. In the full data, 47 (0.25%) were called active. 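Signals are raw, not normalised; exact z-scores behind calls not deposited; actives needed confirmation, so some wells reaching 2 SD are inactive.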 Entries without a mark were called inactive. A plus sign joins genes that one reagent is predicted to hit.

l(3)73Ah (GeneID 48903) [DRSC11359] scored raw ATP luminescence, replicate 1 = 72910; raw ATP luminescence, replicate 2 = 55127.
With knock-down of snoRNA:Me28S-A982b + Uhg4 + snoRNA:Me28S-G3255a + 1 more [DRSC05143], the screen gave raw ATP luminescence, replicate 1 = 74540; raw ATP luminescence, replicate 2 = 86973.
With knock-down of Tep1 (GeneID 34937) [DRSC03450], the screen gave raw ATP luminescence, replicate 1 = 50097; raw ATP luminescence, replicate 2 = 63060.
kud (GeneID 39882) [DRSC11086] showed raw ATP luminescence, replicate 1 = 42803; raw ATP luminescence, replicate 2 = 37070.
Silencing of Sgs5bis (GeneID 42113) [DRSC16263] came out at: raw ATP luminescence, replicate 1 = 1.00e5; raw ATP luminescence, replicate 2 = 1.04e5.
For CG8112 (GeneID 41033) [DRSC16377] the deposit lists raw ATP luminescence, replicate 1 = 57173; raw ATP luminescence, replicate 2 = 44957.
Knock-down of l(2)k05911 (GeneID 34731) [DRSC02523] gave: raw ATP luminescence, replicate 1 = 2.05e5; raw ATP luminescence, replicate 2 = 2.20e5.
With knock-down of CG43897 (GeneID 39153) [DRSC10965], the record shows raw ATP luminescence, replicate 1 = 50650; raw ATP luminescence, replicate 2 = 43697.
For CG43897 (GeneID 39153) [DRSC10967], the entry reads raw ATP luminescence, replicate 1 = 82303; raw ATP luminescence, replicate 2 = 80430.
Depletion of CAH7 (GeneID 41238) [DRSC15524] resulted in: raw ATP luminescence, replicate 1 = 54207; raw ATP luminescence, replicate 2 = 49787.
With knock-down of Blos3 (GeneID 5740347) [DRSC09573], the record shows raw ATP luminescence, replicate 1 = 1.78e5; raw ATP luminescence, replicate 2 = 1.64e5.
Silencing of Lcp3 (GeneID 35819) [DRSC07457] came out at: raw ATP luminescence, replicate 1 = 34670; raw ATP luminescence, replicate 2 = 79293.
Against CG12824 (GeneID 35727) [DRSC06173], the values are raw ATP luminescence, replicate 1 = 50433; raw ATP luminescence, replicate 2 = 1.01e5.
Depletion of CG7550 (GeneID 38901) [DRSC10875] gave: raw ATP luminescence, replicate 1 = 70913; raw ATP luminescence, replicate 2 = 78573.
Grip71 (GeneID 35130) [DRSC02042] gave raw ATP luminescence, replicate 1 = 46827; raw ATP luminescence, replicate 2 = 41330.
Depletion of ttv (GeneID 36614) [DRSC07709] came out at: raw ATP luminescence, replicate 1 = 49713; raw ATP luminescence, replicate 2 = 55083.
CG6836 (GeneID 40070) [DRSC10722] scored raw ATP luminescence, replicate 1 = 25380; raw ATP luminescence, replicate 2 = 27010.
After knock-down of Cys (GeneID 41767) [DRSC16637] the results were raw ATP luminescence, replicate 1 = 98030; raw ATP luminescence, replicate 2 = 65900.
CG42674 (GeneID 40205) [DRSC10066] showed raw ATP luminescence, replicate 1 = 1.79e5; raw ATP luminescence, replicate 2 = 1.39e5.
For CG42674 (GeneID 40205) [DRSC10067], the values are raw ATP luminescence, replicate 1 = 97500; raw ATP luminescence, replicate 2 = 69800.
CG42674 (GeneID 40205) [DRSC10811] showed raw ATP luminescence, replicate 1 = 76793; raw ATP luminescence, replicate 2 = 54777.

3 entries already listed, ordered by “raw ATP luminescence, replicate 2”, low to high.
CG6836 (GeneID 40070) [DRSC10722] | raw ATP luminescence, replicate 1 = 25380; raw ATP luminescence, replicate 2 = 27010
Grip71 (GeneID 35130) [DRSC02042] | raw ATP luminescence, replicate 1 = 46827; raw ATP luminescence, replicate 2 = 41330
ttv (GeneID 36614) [DRSC07709] | raw ATP luminescence, replicate 1 = 49713; raw ATP luminescence, replicate 2 = 55083
